# Measurements taken from PubChem BioAssay AID504847 (National Center for Advancing Translational Sciences (NCATS), 2011).
# Protein sequences, listed by entry. Tags and fused reporters are not part of them. Lines headed by an entry give the natural chain unless they say otherwise; changes in a name come on top.
# UniProt P11473: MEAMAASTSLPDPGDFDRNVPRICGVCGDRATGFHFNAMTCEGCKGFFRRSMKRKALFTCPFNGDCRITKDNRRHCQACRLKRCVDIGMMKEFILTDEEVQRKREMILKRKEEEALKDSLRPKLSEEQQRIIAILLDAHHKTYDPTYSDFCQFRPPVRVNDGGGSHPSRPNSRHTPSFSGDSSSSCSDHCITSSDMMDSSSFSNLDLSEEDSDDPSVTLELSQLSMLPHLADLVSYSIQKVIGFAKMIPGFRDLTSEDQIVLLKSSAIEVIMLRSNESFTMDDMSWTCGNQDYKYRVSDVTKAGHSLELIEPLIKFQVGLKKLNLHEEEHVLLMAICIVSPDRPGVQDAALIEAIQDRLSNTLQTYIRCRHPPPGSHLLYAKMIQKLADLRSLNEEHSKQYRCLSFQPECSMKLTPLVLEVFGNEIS
# Several values for one entry are separate records, joined by “and”; a condition that tells them apart may be missing. Identical values can stand only once. The whole screen tested about 400,000 compounds, of which about 3,700 (0.93%) were called active. Inconclusive means that the source gave no clear call. Such entries were picked first, then a sample of the others. Calls follow the shape of the dose curve; as a rule, active = well fitted inhibition curve with a large enough effect; inconclusive = small, poorly fitted or top-dose-only effect, or another doubt; inactive = no such curve, though single readings can be large or run the other way. A potency beside an inconclusive call is a rough fit, not a confirmed value. More than one record can exist for a structure, and the calls need not agree.
# Target: Vitamin D3 receptor (Homo sapiens) (UniProt P11473)
# Experiment: Inhibitors of the vitamin D receptor (VDR): qHTS
# Conditions: VDR-SRC2-3 peptide fluorescence polarization, 2 h; max response, negative = inhibition: active compounds read low
# How it was run: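 Fluorescence polarization assay of small-molecule disruption of VDR binding to coregulator peptide SRC2-3. Compounds and controls pin-transferred, then read after 2 h incubation at ambient room temperature.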
# % is scaled to controls: 0 for no effect and ±100 for the full control effect; potency is read from the fitted curve at half-maximal effect.
Compound,Potency,"max response, negative = inhibition"
CN1C(=O)/C(=C/C=C/c2ccco2)C(=O)NC1=S,"inconclusive: 31.6 µM [inhibitor, single point]",–
O=C(Nc1ccc(Br)cc1)c1cc(Br)cc(Br)c1O,active: 56.2 µM,–
O=c1[nH]c(=S)n(-c2ccc(Br)cc2)c(O)c1C=Nc1ccc(N2CCOCC2)cc1,"inconclusive: 89.1 µM [inhibitor, single point]",–
NC(=NCc1ccc(Cl)cc1)SCCCc1cnc[nH]1,"inconclusive: 39.8 µM [inhibitor, full curve, poor fit]",–
COc1ccc(/C=C/C(=O)c2c(O)n(CCC3=CCCCC3)c(=O)[nH]c2=O)cc1,"inconclusive: 8.91 µM [inhibitor, full curve]",–
COc1c(CC=C(C)C)c2c(c3oc(=O)c(-c4ccc(O)cc4)c(O)c13)C=CC(C)(C)O2,"inconclusive: 44.7 µM [inhibitor, partial curve]",–
O=C1NC(=S)NC(=O)C1=Cc1ccc(Br)s1,active: 22.4 µM,–
Cc1cc2c(C(C)C)c(O)c(O)c(C=O)c2c(O)c1-c1c(C)cc2c(C(C)C)c(O)c(O)c(C=O)c2c1O,active: 11.2 µM and active: 8.91 µM and active: 6.31 µM,–
CCC(C)N1C(=O)/C(=C\c2cc3c4c(c2)CCCN4CCC3)C(=O)NC1=S (stereo not drawn),"inconclusive: 100 µM [inhibitor, single point]",–
O=c1[nH]c2ccccc2n1C1CCN(CCCC(c2ccc(F)cc2)c2ccc(F)cc2)CC1,"inconclusive: 50.1 µM [inhibitor, partial curve, poor fit]",–
CC(=O)[O][Hg][c]1ccccc1,active: 1.78 µM,–
O=C1NC(=O)N(Cc2ccc(F)cc2)C(=O)/C1=C\C=C\c1ccco1,"inconclusive: 14.1 µM [inhibitor, partial curve, poor fit]",–
OC(c1ccc(Cl)cc1)(c1cncnc1)c1ccccc1Cl (stereo not drawn),"inconclusive: 89.1 µM [inhibitor, partial curve, poor fit]",–
O=C1NC(=O)N(c2cccc(Br)c2)C(=O)/C1=C/c1ccsc1,"inconclusive: 79.4 µM [inhibitor, partial curve, poor fit]",–
N#CC(C#N)=NNc1ccc([N+](=O)[O-])cc1,"inconclusive: 50.1 µM [inhibitor, partial curve, poor fit]",–
O=C1NC(=O)N(CCc2ccc(F)cc2)C(=O)/C1=C/C=C/c1ccccc1,"inconclusive: 63.1 µM [inhibitor, partial curve, poor fit]",–
C/C=C/C/C=C/CCC(=O)[C@H]1O[C@H]1C(N)=O,"inconclusive: 44.7 µM [inhibitor, partial curve]",–
O=C(CN1C(=O)S/C(=C\C=C\c2ccccc2)C1=O)Nc1ccccc1C(=O)O,active: 79.4 µM,–
CCCCCCCCn1sccc1=O,active: 3.55 µM,–
O=C1N=c2ccccc2=C/C1=C\c1c(O)[nH]c(=S)[nH]c1=O,"inconclusive: 25.1 µM [inhibitor, partial curve]",–
COc1ccc(N2C(=O)/C(=C/c3ccc(OC)c(OC)c3)C(=O)NC2=S)cc1,"inconclusive: 39.8 µM [inhibitor, full curve, poor fit]",–

Compound,Potency,"max response, negative = inhibition"
Cn1c(O)c(C(c2ccncc2)c2c(O)n(C)c(=S)n(C)c2=O)c(=O)n(C)c1=S,"inconclusive: 89.1 µM [inhibitor, single point]",–
CCC1(C)CC(C(N)=S)CCO1 (stereo not drawn),active: 20 µM,–
COc1ccccc1-n1c(O)c(/C=N/NC(=S)Nc2ccccc2)c(=O)[nH]c1=S,"inconclusive: 39.8 µM [inhibitor, partial curve, poor fit]",–
O=C(O)C(O)(c1ccccc1)C1CCCCC1 (stereo not drawn),–,inactive: -7.56%
CN1C2c3ccccc3C3C4c5ccccc5C(C31)C(C2[N+](=O)[O-])N4C (stereo not drawn),–,inactive: -14.7%
CCCCOc1ccc(CC2C(=O)N(C)C(=O)N(C)C2=O)cc1,"inconclusive: 56.2 µM [inhibitor, single point]",–
O=C1NC(=O)N(Cc2ccccc2Cl)C(=O)/C1=C/c1cccs1,"inconclusive: 15.8 µM [inhibitor, full curve, poor fit]",–
CCCCN1C(=O)NC(=O)/C(=C/c2cnc(SC)nc2)C1=O,active: 25.1 µM,–
O=C1NC(=O)N(CCC2=CCCCC2)C(=O)/C1=C\c1cccs1,active: 44.7 µM,–
Cc1ccc(N2C(=O)NC(=O)/C(=C/c3cnc(-c4ccccc4)nc3)C2=O)cc1C,active: 31.6 µM,–
O=c1oc2ccccc2c(O)c1C(c1ccccn1)c1c(O)c2ccccc2oc1=O,"inconclusive: 100 µM [inhibitor, single point]",–
COc1ccccc1N1C(=O)NC(=O)/C(=C\c2cnn(-c3ccccc3)c2)C1=O,"inconclusive: 89.1 µM [inhibitor, single point]",–
CN(C)CCNC(=O)c1cccn(Cc2cccc(C(F)(F)F)c2)c1=O,"inconclusive: 31.6 µM [inhibitor, single point]",–
CC(=O)OC(C)(C)/C=C/C(=O)C(C)(O)C1[C@H](O)C[C@@]2(C)C3CC=C4C(CC[C@@H](O)C4(C)C)[C@]3(CO)C(=O)C[C@]12C (stereo partly drawn),"inconclusive: 56.2 µM [inhibitor, partial curve, poor fit]",–
CC1=CCCC2C1(C)CCC(C)C2(C)CC/C(C)=C/C[n+]1cn(C)c2c(N)ncnc21 (stereo not drawn),"inconclusive: 50.1 µM [inhibitor, partial curve]",–
CC12CC(=O)C3C(CCC4CC(=O)C=CC43C)C1CCC2=O (stereo not drawn),–,inactive: -15.6%
CCN1C[C@]2(CO)CC[C@H](OC)[C@@]34C2[C@H](OC)[C@@](O)(C13)[C@@]1(O)C[C@H](OC)[C@H]2C[C@@H]4[C@@H]1[C@H]2OC,"inconclusive: 89.1 µM [inhibitor, partial curve, poor fit]",–
CN1C[C@@H](C(=O)N[C@@]2(C)O[C@]3(O)C4CCCN4C(=O)[C@@H](Cc4ccccc4)N3C2=O)C=C2c3cccc4[nH]cc(c34)C[C@@H]21 (stereo partly drawn),active: 14.1 µM,–
COc1ccc(N2C(=O)NC(=O)/C(=C\c3ccc([N+](=O)[O-])s3)C2=O)cc1,active: 70.8 µM,–
COC1CC(C)C(OC)c2cc(O)cc(c2O)NC(=O)C(C)=CC=CC(C)C(OC(N)=O)C(C)=CC(C)C1OC (stereo not drawn),"inconclusive: 39.8 µM [inhibitor, full curve, poor fit]",–
COc1ccc(CN2Cc3cnnn3-c3ccccc3C2C#N)cc1 (stereo not drawn),active: 20 µM,–

Compound,Potency,"max response, negative = inhibition"
CNS(=O)(=O)c1ccc(N=Cc2c(O)n(-c3cccc(C)c3)c(=O)[nH]c2=O)cc1,"inconclusive: 79.4 µM [inhibitor, partial curve, poor fit]",–
CC1=NNC(=O)C1C(c1ccc(F)cc1)C(C#N)C#N (stereo not drawn),"inconclusive: 79.4 µM [inhibitor, partial curve, poor fit]",–
CCCCC/C=C\C/C=C\C/C=C\C/C=C\CCCC(=O)NC1CC1,"inconclusive: 89.1 µM [inhibitor, single point]",–
COc1ccc(C=C2C(=O)NC(=S)NC2=O)cc1OC,active: 39.8 µM,–
N#CCC(=O)NN1Cc2ccccc2C1=N,–,inactive: -4.65%
Cc1ccc2c(c1)=C/C(=C\c1c(O)[nH]c(=O)[nH]c1=O)C(=O)N=2,active: 89.1 µM,–
CCN(CC)C(=O)c1c(C)[nH]c(=S)c(C#N)c1-c1ccco1,"inconclusive: 22.4 µM [inhibitor, partial curve]",–
NC(=S)c1cn(C2OC(CO)C(O)C2O)c2ncnc(N)c12 (stereo not drawn),"inconclusive: 100 µM [inhibitor, single point]",–
C[C@H]1COC2=C1C(=O)C(=O)c1c2ccc2c1CCCC2(C)C,active: 28.2 µM and active: 11.2 µM,–
COC(=O)C1=C(N)Oc2cc(C)oc(=O)c2C12C(=O)Nc1ccccc12 (stereo not drawn),"inconclusive: 35.5 µM [inhibitor, single point]",–
COC(=O)C1=C(c2cccc3c2S(=O)(=O)c2ccccc2-3)C[C@@H]2CC[C@H]1N2C(=O)N1CCOCC1,"inconclusive: 100 µM [inhibitor, single point]",–
C=CCN1CC[C@@]2(C)c3cc(O)ccc3CC1[C@@H]2C,"inconclusive: 100 µM [inhibitor, single point]",–
CCCCCCCCCCCCCCOS(=O)(=O)O,active: 28.2 µM,–
COC(=O)CCC(=O)Nc1sc(Cc2ccccc2)c(C)c1C(N)=O,active: 20 µM,–
O=C(N=Nc1c(O)[nH]c(=O)[nH]c1=O)C1COc2ccccc2O1 (stereo not drawn),"inconclusive: 79.4 µM [inhibitor, single point]",–
COc1c(O)c2c(=O)cc(OC)c3c4c(OC)cc(=O)c5c(O)c(OC)c(C[C@@H](C)OC(=O)c6ccccc6)c(c(c1C[C@@H](C)OC(=O)Oc1ccc(O)cc1)c23)c54,active: 50.1 µM,–
Oc1ccc(Cl)cc1Cc1cc(Cl)ccc1O,"inconclusive: 70.8 µM [inhibitor, single point]",–
CCCCC/C=C\C/C=C\C/C=C\C/C=C\CCCC(=O)NCC(=O)O,active: 39.8 µM,–
CCCCC/C=C\C/C=C\C/C=C\C/C=C\CCCC(=O)NCCc1ccc(O)c(O)c1,active: 39.8 µM,–
O=C(CCCn1c(=O)[nH]c2cc(Cl)ccc2c1=O)N1CCC2(CC1)OCCO2,"inconclusive: 89.1 µM [inhibitor, partial curve, poor fit]",–
O=C1NC(=O)C(=Cc2coc3ccc(O)cc3c2=O)C(=O)N1,"inconclusive: 79.4 µM [inhibitor, partial curve, poor fit]",–
